{"source": "patent US8217085B2", "about": "(priority 2009, dated 2012)", "system": "ATCC strain 43300 Staphylococcus aureus", "note": "Where two headings read alike, the source gives them in different places. This continues a long series; more values of the same kind are listed elsewhere.", "data": [{"smiles": "CS(C)(=O)=O", "note": "[MSM, methylsulfonylmethane]", "values": [{"measurement": "survival", "setting": "5% MSM, 6 μg/ml methicillin, 24 hours", "result": 4.30, "unit": "Log cfu/ml"}, {"measurement": "survival", "setting": "5% MSM, 6 μg/ml methicillin, 48 hours", "result": 3.60, "unit": "Log cfu/ml"}, {"measurement": "survival", "setting": "5% MSM, 6 μg/ml methicillin, 120 hours", "result": "TNTC"}, {"measurement": "survival", "setting": "5% MSM, 6 μg/ml oxacillin, 24 hours", "result": 4.90, "unit": "Log cfu/ml"}, {"measurement": "survival", "setting": "5% MSM, 6 μg/ml oxacillin, 48 hours", "result": 5.20, "unit": "Log cfu/ml"}, {"measurement": "survival", "setting": "5% MSM, 6 μg/ml oxacillin, 120 hours", "result": "TNTC"}, {"measurement": "survival", "setting": "8% MSM, 6 μg/ml methicillin, 24 hours", "result": 4.50, "unit": "Log cfu/ml"}, {"measurement": "survival", "setting": "8% MSM, 6 μg/ml methicillin, 48 hours", "result": 3.60, "unit": "Log cfu/ml"}, {"measurement": "survival", "setting": "8% MSM, 6 μg/ml methicillin, 120 hours", "result": "TNTC"}, {"measurement": "survival", "setting": "8% MSM, 6 μg/ml oxacillin, 24 hours", "result": 5.00, "unit": "Log cfu/ml"}, {"measurement": "survival", "setting": "8% MSM, 6 μg/ml oxacillin, 48 hours", "result": 3.60, "unit": "Log cfu/ml"}, {"measurement": "survival", "setting": "8% MSM, 6 μg/ml oxacillin, 120 hours", "result": "TNTC"}, {"measurement": "survival", "setting": "10% MSM, 6 μg/ml methicillin, 24 hours", "result": 4.40, "unit": "Log cfu/ml"}, {"measurement": "survival", "setting": "10% MSM, 6 μg/ml methicillin, 48 hours", "result": 3.70, "unit": "Log cfu/ml"}, {"measurement": "survival", "setting": "10% MSM, 6 μg/ml methicillin, 120 hours", "result": "TNTC"}, {"measurement": "survival", "setting": "10% MSM, 6 μg/ml oxacillin, 24 hours", "result": 5.00, "unit": "Log cfu/ml"}, {"measurement": "survival", "setting": "10% MSM, 6 μg/ml oxacillin, 48 hours", "result": 4.20, "unit": "Log cfu/ml"}, {"measurement": "survival", "setting": "10% MSM, 6 μg/ml oxacillin, 120 hours", "result": "TNTC"}, {"measurement": "survival", "setting": "12% MSM, 6 μg/ml methicillin, 24 hours", "result": 4.60, "unit": "Log cfu/ml"}, {"measurement": "survival", "setting": "12% MSM, 6 μg/ml methicillin, 48 hours", "result": 3.70, "unit": "Log cfu/ml"}, {"measurement": "survival", "setting": "12% MSM, 6 μg/ml methicillin, 120 hours", "result": 4.20, "unit": "Log cfu/ml"}, {"measurement": "survival", "setting": "12% MSM, 6 μg/ml oxacillin, 24 hours", "result": 5.20, "unit": "Log cfu/ml"}, {"measurement": "survival", "setting": "12% MSM, 6 μg/ml oxacillin, 48 hours", "result": 4.30, "unit": "Log cfu/ml"}, {"measurement": "survival", "setting": "12% MSM, 6 μg/ml oxacillin, 120 hours", "result": "TNTC"}, {"measurement": "survival", "setting": "13% MSM, 6 μg/ml methicillin, 24 hours", "result": 4.90, "unit": "Log cfu/ml"}, {"measurement": "survival", "setting": "13% MSM, 6 μg/ml methicillin, 48 hours", "result": 3.90, "unit": "Log cfu/ml"}, {"measurement": "survival", "setting": "13% MSM, 6 μg/ml methicillin, 120 hours", "result": 2.80, "unit": "Log cfu/ml"}, {"measurement": "survival", "setting": "13% MSM, 6 μg/ml oxacillin, 24 hours", "result": 5.00, "unit": "Log cfu/ml"}, {"measurement": "survival", "setting": "13% MSM, 6 μg/ml oxacillin, 48 hours", "result": 4.20, "unit": "Log cfu/ml"}, {"measurement": "survival", "setting": "13% MSM, 6 μg/ml oxacillin, 120 hours", "result": "TNTC"}, {"measurement": "survival", "setting": "14% MSM, 6 μg/ml methicillin, 24 hours", "result": 4.90, "unit": "Log cfu/ml"}, {"measurement": "survival", "setting": "14% MSM, 6 μg/ml methicillin, 48 hours", "result": 3.98, "unit": "Log cfu/ml"}, {"measurement": "survival", "setting": "14% MSM, 6 μg/ml methicillin, 120 hours", "result": 2.90, "unit": "Log cfu/ml"}, {"measurement": "survival", "setting": "14% MSM, 6 μg/ml oxacillin, 24 hours", "result": 5.20, "unit": "Log cfu/ml"}, {"measurement": "survival", "setting": "14% MSM, 6 μg/ml oxacillin, 48 hours", "result": 4.40, "unit": "Log cfu/ml"}, {"measurement": "survival", "setting": "14% MSM, 6 μg/ml oxacillin, 120 hours", "result": 3.00, "unit": "Log cfu/ml"}, {"measurement": "survival", "setting": "15% MSM, 6 μg/ml methicillin, 24 hours", "result": 5.00, "unit": "Log cfu/ml"}, {"measurement": "survival", "setting": "15% MSM, 6 μg/ml methicillin, 48 hours", "result": 4.00, "unit": "Log cfu/ml"}, {"measurement": "survival", "setting": "15% MSM, 6 μg/ml methicillin, 120 hours", "result": 2.80, "unit": "Log cfu/ml"}, {"measurement": "survival", "setting": "15% MSM, 6 μg/ml oxacillin, 24 hours", "result": 5.23, "unit": "Log cfu/ml"}, {"measurement": "survival", "setting": "15% MSM, 6 μg/ml oxacillin, 48 hours", "result": 4.40, "unit": "Log cfu/ml"}, {"measurement": "survival", "setting": "15% MSM, 6 μg/ml oxacillin, 120 hours", "result": 3.00, "unit": "Log cfu/ml"}, {"measurement": "survival", "setting": "16% MSM, 6 μg/ml methicillin, 24 hours", "result": 5.00, "unit": "Log cfu/ml"}, {"measurement": "survival", "setting": "16% MSM, 6 μg/ml methicillin, 48 hours", "result": 4.17, "unit": "Log cfu/ml"}, {"measurement": "survival", "setting": "16% MSM, 6 μg/ml methicillin, 120 hours", "result": 2.80, "unit": "Log cfu/ml"}, {"measurement": "survival", "setting": "16% MSM, 6 μg/ml oxacillin, 24 hours", "result": 5.25, "unit": "Log cfu/ml"}, {"measurement": "survival", "setting": "16% MSM, 6 μg/ml oxacillin, 48 hours", "result": 4.17, "unit": "Log cfu/ml"}, {"measurement": "survival", "setting": "16% MSM, 6 μg/ml oxacillin, 120 hours", "result": 3.00, "unit": "Log cfu/ml"}]}]}
